Out of some 390,000 compounds screened, about 910 (0.23%) were called active. The shares of active, inactive and inconclusive entries below differ from those in the screen. Calls come from the whole dose curve; as a rule, active = well fitted inhibition curve with a large enough effect; inconclusive = small, poorly fitted or top-dose-only effect; inactive = no such curve, though single readings can be large or run the other way. Potencies of inconclusive entries are doubtful fits and often do not repeat.
Target: Ubiquitin carboxyl-terminal hydrolase 1 (Homo sapiens) (UniProt O94782)
Test: Inhibitors of USP1/UAF1: Primary Screen; note: nearly all actives have a fitted effect of over 60% in size
Details: recombinant USP1/UAF1, Ub-Rhodamine cleavage fluorescence; activity change, negative = inhibition: at 57.1 µM (top of the series)
Method in brief: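 High-throughput fluorogenic screen: 1nM USP1/UAF1 complex, Ub-Rho substrate 150nM final, 50mM HEPES pH 7.8 with 0.5mM EDTA, 0.1 mg/ml BSA, 1mM TCEP and 0.01% Tween-20.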
% is set by controls: 0 for no effect and ±100 for the full control effect; potency is the fitted concentration of half-maximal effect.

Amino acid sequences for entries named in this document (tags omitted). A change or cut given only in a name is not applied to a line headed by its entry.
UniProt O94782: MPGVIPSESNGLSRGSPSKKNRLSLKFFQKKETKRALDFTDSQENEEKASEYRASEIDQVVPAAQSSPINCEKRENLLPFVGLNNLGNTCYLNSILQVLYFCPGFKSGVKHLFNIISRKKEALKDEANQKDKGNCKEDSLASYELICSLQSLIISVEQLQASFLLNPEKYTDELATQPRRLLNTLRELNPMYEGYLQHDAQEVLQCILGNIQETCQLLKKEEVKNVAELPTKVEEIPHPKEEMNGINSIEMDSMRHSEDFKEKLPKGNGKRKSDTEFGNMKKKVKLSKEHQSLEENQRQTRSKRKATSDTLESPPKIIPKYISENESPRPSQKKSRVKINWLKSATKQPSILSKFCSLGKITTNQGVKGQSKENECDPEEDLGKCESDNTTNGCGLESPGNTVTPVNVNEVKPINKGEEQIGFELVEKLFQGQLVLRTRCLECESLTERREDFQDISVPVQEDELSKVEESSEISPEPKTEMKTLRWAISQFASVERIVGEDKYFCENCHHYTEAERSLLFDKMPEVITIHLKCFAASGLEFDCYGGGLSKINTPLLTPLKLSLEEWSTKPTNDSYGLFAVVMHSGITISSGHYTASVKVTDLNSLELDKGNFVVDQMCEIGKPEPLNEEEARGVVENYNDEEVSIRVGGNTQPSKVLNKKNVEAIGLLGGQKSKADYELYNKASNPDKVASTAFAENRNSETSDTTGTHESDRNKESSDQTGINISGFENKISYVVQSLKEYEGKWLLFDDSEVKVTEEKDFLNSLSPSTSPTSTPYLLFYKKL

Activity change, negative = inhibition, inactive:
COc1ccc(NC(=O)Cc2noc3ccc(C)cc23)cc1Cl -25.9%
CCOc1ccccc1O[C@H](c1ccccc1)[C@H]1CNCCO1 16.8%
CCC(C(=O)N1CCN(c2ccccc2)CC1)n1nc(C)c2sc3ccccc3c2c1=O (stereo unspecified) -13.1%
CC1CCN(S(=O)(=O)c2ccc(C(=O)N3CCOCC3)cc2)CC1 -19.3%
CCc1ccc(-c2cn(-c3nc(C)cc(C)n3)c(=N)o2)cc1 -13.7%
Cc1ccc(CNC(=O)C(C)n2ccc3cc(S(=O)(=O)N4CCCC4)ccc32)cc1 (stereo unspecified) -10.6%
COc1ccc(OC)c(NC(=S)NCc2cccs2)c1 -3.94%
Cc1cc(=O)n2nc(N3CCCC(C(=O)NCCc4ccc(Cl)cc4)C3)sc2n1 (stereo unspecified) -4.39%
C[C@H]1COC(=O)CC/C=C\C[C@H](CC(=O)N(CCO)Cc2ccccc2)C(=O)N1 -17.3%
Cc1ccc(NC(=O)C[n+]2ccn(C3=C([O-])c4ccccc4C3=O)c2)cc1 -17.7%
O=C(O)[C@H]1CCCC[C@H]1C(=O)Nc1ccc(Nc2ccccc2)cc1 -3.98%
c1ccc(-c2ccc(-c3ccncn3)cc2)cc1 -26.5%
Cn1nnnc1SCCCNCc1cccc(OCc2ccccc2Cl)c1 3.73%
CCOC(=O)c1cnc(SCc2ccccc2)nc1N -8.04%
CN1C(=O)C(Cl)(Cl)C(=O)c2ccccc21 -5.1%
CCOc1cc(NC(=O)c2ccccn2)c(OCC)cc1NC(=O)c1ccccc1 -4.98%
O=C(Nc1ccc(F)cc1F)c1cncc(Br)c1 -15.8%
CCCOC(=O)CSc1ncnc2sc3c(c12)CCC(C)C3 (stereo unspecified) -34.5%
Cc1ccc(Cn2c(SCc3ccc(C(=O)N4CCCCCC4)cc3)nc3ccncc32)cc1 -0.0404%
COc1ccc(-n2nnnc2SCC(=O)N2CCN(C(=O)c3ccco3)CC2)cc1OC 5.29%
FC(F)(F)c1cccc(Cc2noc(CN3CCCC(OCc4ccccn4)C3)n2)c1 (stereo unspecified) -13.8%
Cc1ccc(S(=O)(=O)N2C[C@H]3n4c(=O)ccc(=O)n4C[C@H](OC(=O)NCc4ccccc4)[C@@]3(O)C2)cc1 -6.07%
CCCCOc1ccc(C(=O)Nc2ccc(N3CCN(C(=O)C(C)C)CC3)cc2)cc1 -6.76%
Cc1cc2oc(C(=O)N(Cc3ccccc3F)C3CCS(=O)(=O)C3)c(C)c2cc1Cl (stereo unspecified) -9.64%
COc1ccccc1NC(=O)C(C(C)C)N1C(=O)c2ccccc2C1=O (stereo unspecified) -29.3%
CCn1c(SCc2nc3sc(C(=O)O)c(C)c3c(=O)[nH]2)nnc1-c1ccc(Cl)cc1 -19.7%

Seven compounds out of the list, arranged by formula weight, rising.
Activity change, negative = inhibition, inactive:
CN1C(=O)C(Cl)(Cl)C(=O)c2ccccc21 -5.1%
COc1ccc(OC)c(NC(=S)NCc2cccs2)c1 -3.94%
COc1ccc(NC(=O)Cc2noc3ccc(C)cc23)cc1Cl -25.9%
Cc1ccc(NC(=O)C[n+]2ccn(C3=C([O-])c4ccccc4C3=O)c2)cc1 -17.7%
C[C@H]1COC(=O)CC/C=C\C[C@H](CC(=O)N(CCO)Cc2ccccc2)C(=O)N1 -17.3%
CCOc1cc(NC(=O)c2ccccn2)c(OCC)cc1NC(=O)c1ccccc1 -4.98%
Cc1ccc(S(=O)(=O)N2C[C@H]3n4c(=O)ccc(=O)n4C[C@H](OC(=O)NCc4ccccc4)[C@@]3(O)C2)cc1 -6.07%

Following part.

Potency, active:
Nc1ccc(N2CCCCC2)c2nonc12 4.47 µM

Potency, inconclusive:
COC(=O)c1ccc(C)cc1C1CN=NC12Cc1cc(C)ccc1C2=O (stereo unspecified) 31.6 µM [inhibitor, single point]
COc1cccc(C2=CC(c3ccccc3F)n3c(nc4ccccc43)N2)c1 (stereo unspecified) 44.7 µM [inhibitor, partial curve]
CN1C(=O)C(C)(C)c2cc(S(=O)(=O)N3CCC(C(=O)NCc4ccccc4Cl)CC3)ccc21 5.01 µM [inhibitor, single point]
CC1CCN(C(=O)c2[nH]cnc2C(=O)NCC(=O)OCc2ccccc2)CC1 70.8 µM [inhibitor, partial curve, poor fit]
COc1ccc(OC)c(C(=O)NC(CC(N)=O)c2ccc(N3CCC(N4CCCC4)CC3)c([N+](=O)[O-])c2)c1 (stereo unspecified) 44.7 µM [inhibitor, single point]
Cc1nc2cc(-c3ccccc3)nn2c(C)c1CCC(=O)NC(C)c1ccc2c(c1)OCCO2 (stereo unspecified) 31.6 µM [inhibitor, single point]
CC(C)CCC(C)N=Cc1c(O)n(Cc2ccccc2)c(=O)c2ccccc12 (stereo unspecified) 28.2 µM [inhibitor, partial curve]
O=C1NC(=O)C(=Cc2ccccc2[N+](=O)[O-])S1 35.5 µM [inhibitor, partial curve]
N=C1/C(=C/c2ccc(-c3cccc(C(=O)O)c3)o2)C(=O)N=C2SC=C(c3ccccc3)N12 39.8 µM [inhibitor, partial curve, poor fit]
c1ccc(-c2nccc(-c3ccc4c(c3)OCO4)n2)cc1 44.7 µM [inhibitor, partial curve]
COc1ccc2nc(SCc3cnc(C)nc3N)[nH]c2c1 0.708 µM [inhibitor, full curve, poor fit]
COc1ccc(C2C(=O)N(C3CCC(C)CC3)CC(=O)N2CCC2=CCCCC2)cc1OC (stereo unspecified) 6.31 µM [inhibitor, single point]
Fc1ccc(F)c(C2=NNC(=Nc3ccccc3F)SC2)c1 50.1 µM [inhibitor, partial curve]
Cc1cccc(NC(=O)Cn2c(=O)oc3cc(S(=O)(=O)NC4CCCC4)ccc32)c1 35.5 µM [inhibitor, partial curve]
O=C(Cc1ccc(NC(=O)C2CCCN(C(=O)CCc3ccccc3)C2)cc1)Nc1cccc(C(=O)N2CCCCC2)c1 (stereo unspecified) 70.8 µM [inhibitor, partial curve, poor fit]
COCC1CCCCC1OS(N)(=O)=O (stereo unspecified) 100 µM [inhibitor, partial curve, poor fit]
O=C(CSc1nnc(-c2ccc(C(F)(F)F)cn2)o1)Nc1cccc(Cl)c1 3.16 µM [inhibitor, partial curve]
CCOC(=O)c1c(NC(=O)Cn2nc(C(F)(F)F)cc2C)sc2c1CCC2 44.7 µM [inhibitor, partial curve]
O=C(/C=C/c1cc[n+](CC(=O)c2ccc3cccc4c3c2CC4)cc1)c1ccc2cccc3c2c1CC3 5.01 µM [inhibitor, full curve, poor fit]
Cc1ccc(NC(=O)CSc2ncc3c(n2)-c2ccc(Cl)cc2N(C)S3(=O)=O)cc1F 10 µM [inhibitor, partial curve, poor fit]
CN1CCN(CCCNC(=O)c2cn(C)c3ccc(S(=O)(=O)N(C)C)cc3c2=O)CC1 44.7 µM [inhibitor, partial curve, poor fit]
COc1ccc2c(c1)C(=O)C1(CC2)OC1c1cccnc1 (stereo unspecified) 7.94 µM [inhibitor, partial curve, poor fit]
COC(=O)[C@@]1(Cc2ccc(F)cc2)[C@H]2c3cc(C(=O)N(C)C)n(Cc4ccccc4)c3C[C@H]2CN1C(=O)c1ccccc1 44.7 µM [inhibitor, single point]
CCOC(=O)c1c(NC(=O)c2cc3nc(-c4ccc(OC)cc4)cc(C(F)(F)F)n3n2)sc2c1CCC(C)C2 (stereo unspecified) 0.0562 µM [inhibitor, full curve, poor fit]
COc1cc(C2C=C(c3cccs3)Nc3ncnn32)cc(OC)c1OC (stereo unspecified) 31.6 µM [inhibitor, partial curve, poor fit]
CCn1c2ccccc2c2cc(/C=N/n3cnnc3)ccc21 0.891 µM [inhibitor, full curve, poor fit]
Cc1nc(NC(=O)c2ccc([N+](=O)[O-])cc2Cl)sc1C(=O)N(C)C 35.5 µM [inhibitor, partial curve, poor fit]
O=[N+]([O-])c1ccc2c([N+](=O)[O-])ccc3c2c1CC3 0.282 µM [inhibitor, full curve]
COc1ccc(-n2c(=O)c3c4c(sc3n(CC(=O)NCC3CCCO3)c2=O)CN(C(C)=O)CC4)cc1OC (stereo unspecified) 0.112 µM [inhibitor, full curve, poor fit]
Cc1ccc(N2C(=O)N(CC(=O)C(C)(C)C)c3ccccc3S2(=O)=O)cc1C 35.5 µM [inhibitor, single point]
CCc1cccc(NC(=O)c2cc3c(=O)n(Cc4ccc(OC)cc4)ccc3nc2C)c1 6.31 µM [inhibitor, single point]
O=C(COC(=O)c1ccc([N+](=O)[O-])o1)Nc1cccc(S(=O)(=O)N2CCOCC2)c1 35.5 µM [inhibitor, partial curve]
CCn1cc(C(=O)NCc2ccccc2)c(=O)c2cc(S(=O)(=O)N3CCc4ccccc4C3)ccc21 8.91 µM [inhibitor, full curve, poor fit]
CCOC(=O)C1CCCCN1S(=O)(=O)c1csc(C(N)=O)c1 (stereo unspecified) 0.251 µM [inhibitor, full curve]
COc1ccc(Cn2cc(C(=O)c3ccc(C)cc3)c(=O)c3cc(OC)c(OC)cc32)cc1 1.58 µM [inhibitor, full curve, poor fit]
CCOC(=O)c1cnn(-c2ccccc2)c1NC(=O)c1cccs1 31.6 µM [inhibitor, partial curve]
C[C@@H]1ON(C)[C@H]2C[C@H]3c4[nH]c5ccc(-c6ccc7c(c6)OCO7)cc5c4CCN3C(=O)[C@@H]12 35.5 µM [inhibitor, partial curve, poor fit]
CCOC(=O)c1nn(-c2ccc(C)cc2)c(=O)c2c(N)scc12 17.8 µM [inhibitor, partial curve]
CC[C@]12c3[nH]c4ccc(Cl)cc4c3CCN1C(=O)[C@@H](CC(=O)NCCC1=CCCCC1)C[C@@H]2C(=O)N1CCN(C(=O)C2CC2)CC1 89.1 µM [inhibitor, partial curve, poor fit]

Reference: PubChem BioAssay AID743255 (National Center for Advancing Translational Sciences (NCATS), 2014)
